The values that follow come from PMC13260207.

No constants are given. Whether binding was seen depends on the method and setting. In cells and extracts the contact can be indirect.

The experiment deals with wild-type p53 (p53^wt), endogenous (human (endogenous in A549)) (UniProt P04637). As to the kind of experiment: proximity ligation; PLA in fixed, permeabilised cells (MDA-MB-231 for p53^mt; p53^wt cells) treated with vehicle or 30 μM cisplatin for 24 h; nuclear foci counted.

B1: PITP cytoplasmic 1 (PITPNC1), endogenous (protein, UniProt Q9UKF7 1-332)
chain: MLLKEYRICMPLTVDEYKIGQLYMISKHSHEQSDRGEGVEVVQNEPFEDPHHGNGQFTEKRVYLNSKLPSWARAVVPKIFYVTEKAWNYYPYTITEYTCSFLPKFSIHIETKYEDNKGSNDTIFDNEAKDVEREVCFIDIACDEIPERYYKESEDPKHFKSEKTGRGQLREGWRDSHQPIMCSYKLVTVKFEVWGLQTRVEQFVHKVVRDILLIGHRQAFAWVDEWYDMTMDEVREFERATQEATNKKIGIFPPAISISSIPLLPSSVRSAPSSAPSTPLSTDAPEFLSVPKDRPRKKSAPETLTLPDPEKKATLNLPGMHSSDKPCRPKSE
In the case of B1, the binding result is “no binding”.

B2: PITP membrane-associated 1 (PITPNM1), endogenous (protein, UniProt O00562 1-1244)
chain: MLIKEYHILLPMSLDEYQVAQLYMIQKKSREESSGEGSGVEILANRPYTDGPGGSGQYTHKVYHVGSHIPGWFRALLPKAALQVEEESWNAYPYTRTRYTCPFVEKFSIEIETYYLPDGGQQPNVFNLSGAERRQRILDTIDIVRDAVAPGEYKAEEDPRLYHSVKTGRGPLSDDWARTAAQTGPLMCAYKLCKVEFRYWGMQAKIEQFIHDVGLRRVMLRAHRQAWCWQDEWTELSMADIRALEEETARMLAQRMAKCNTGSEGSEAQPPGKPSTEARSAASNTGTPDGPEAPPGPDASPDASFGKQWSSSSRSSYSSQHGGAVSPQSLSEWRMQNIARDSENSSEEEFFDAHEGFSDSEEVFPKEMTKWNSNDFIDAFASPVEAEGTPEPGAEAAKGIEDGAQAPRDSEGLDGAGELGAEACAVHALFLILHSGNILDSGPGDANSKQADVQTLSSAFEAVTRIHFPEALGHVALRLVPCPPICAAAYALVSNLSPYSHDGDSLSRSQDHIPLAALPLLATSSSRYQGAVATVIARTNQAYSAFLRSPEGAGFCGQVALIGDGVGGILGFDALCHSANAGTGSRGSSRRGSMNNELLSPEFGPVRDPLADGVEGLGRGSPEPSALPPQRIPSDMASPEPEGSQNSLQAAPATTSSWEPRRASTAFCPPAASSEAPDGPSSTARLDFKVSGFFLFGSPLGLVLALRKTVMPALEAAQMRPACEQIYNLFHAADPCASRLEPLLAPKFQAIAPLTVPRYQKFPLGDGSSLLLADTLQTHSSLFLEELEMLVPSTPTSTSGAFWKGSELATDPPAQPAAPSTTSEVVKILERWWGTKRIDYSLYCPEALTAFPTVTLPHLFHASYWESADVVAFILRQVIEKERPQLAECEEPSIYSPAFPREKWQRKRTQVKIRNVTSNHRASDTVVCEGRPQVLSGRFMYGPLDVVTLTGEKVDVYIMTQPLSGKWIHFGTEVTNSSGRLTFPVPPERALGIGVYPVRMVVRGDHTYAECCLTVVARGTEAVVFSIDGSFTASVSIMGSDPKVRAGAVDVVRHWQDSGYLIVYVTGRPDMQKHRVVAWLSQHNFPHGVVSFCDGLTHDPLRQKAMFLQSLVQEVELNIVAGYGSPKDVAVYAALGLSPSQTYIVGRAVRKLQAQCQFLSDGYVAHLGQLEAGSHSHASSGPPRAALGKSSYGVAAPVDFLRKQSQLLRSRGPSQAEREGPGTPPTTLARGKARSISLKLDSEE
For B2, the binding result is recorded as “no binding”.

B3: PITP membrane-associated 2 (PITPNM2), endogenous (protein, UniProt Q9BZ72 1-1349)
chain: MIIKEYRIPLPMTVEEYRIAQLYMIQKKSRNETYGEGSGVEILENRPYTDGPGGSGQYTHKVYHVGMHIPSWFRSILPKAALRVVEESWNAYPYTRTRFTCPFVEKFSIDIETFYKTDAGENPDVFNLSPVEKNQLTIDFIDIVKDPVPHNEYKTEEDPKLFQSTKTQRGPLSENWIEEYKKQVFPIMCAYKLCKVEFRYWGMQSKIERFIHDTGLRRVMVRAHRQAWCWQDEWYGLSMENIRELEKEAQLMLSRKMAQFNEDGEEATELVKHEAVSDQTSGEPPEPSSSNGEPLVGRGLKKQWSTSSKSSRSSKRGASPSRHSISEWRMQSIARDSDESSDDEFFDAHEDLSDTEEMFPKDITKWSSNDLMDKIESPEPEDTQDGLYRQGAPEFRVASSVEQLNIIEDEVSQPLAAPPSKIHVLLLVLHGGTILDTGAGDPSSKKGDANTIANVFDTVMRVHYPSALGRLAIRLVPCPPVCSDAFALVSNLSPYSHDEGCLSSSQDHIPLAALPLLATSSPQYQEAVATVIQRANLAYGDFIKSQEGMTFNGQVCLIGDCVGGILAFDALCYSNQPVSESQSSSRRGSVVSMQDNDLLSPGILMNAAHCCGGGGGGGGGGGSSGGGGSSGGSSLESSRHLSRSNVDIPRSNGTEDPKRQLPRKRSDSSTYELDTIQQHQAFLSSLHASVLRTEPCSRHSSSSTMLDGTGALGRFDFEITDLFLFGCPLGLVLALRKTVIPALDVFQLRPACQQVYNLFHPADPSASRLEPLLERRFHALPPFSVPRYQRYPLGDGCSTLLADVLQTHNAAFQEHGAPSSPGTAPASRGFRRASEISIASQVSGMAESYTASSIAQKAPDALSHTPSVRRLSLLALPAPSPTTPGPHPPARKASPGLERAPGLPELDIGEVAAKWWGQKRIDYALYCPDALTAFPTVALPHLFHASYWESTDVVSFLLRQVMRHDNSSILELDGKEVSVFTPSKPREKWQRKRTHVKLRNVTANHRINDALANEDGPQVLTGRFMYGPLDMVTLTGEKVDVHIMTQPPSGEWLYLDTLVTNNSGRVSYTIPESHRLGVGVYPIKMVVRGDHTFADSYITVLPKGTEFVVFSIDGSFAASVSIMGSDPKVRAGAVDVVRHWQDLGYLIIYVTGRPDMQKQRVVAWLAQHNFPHGVVSFCDGLVHDPLRHKANFLKLLISELHLRVHAAYGSTKDVAVYSAISLSPMQIYIVGRPTKKLQQQCQFITDGYAAHLAQLKYSHRARPARNTATRMALRKGSFGLPGQGDFLRSRNHLLRTISAQPSGPSHRHERTQSQADGEQRGQRSMSVAAGCWGRAMTGRLEPGAAAGPK
In the case of B3, the binding result is listed as “no binding”.
